# Assay results taken from PubChem BioAssay AID2685 (National Center for Advancing Translational Sciences (NCATS), 2010).
# Some of the results follow. The main result of the screen is listed elsewhere. These columns were measured beside it and carry no call. The list favours compounds with an active or inconclusive main result. The note in brackets gives the kind of curve behind each potency; many fits are weak.
# Experiment: qHTS Assay for Lipid Storage Modulators in Drosophila S3 Cells;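 on cell number change: cells counted by Cell Tracker Red CMTPX staining in the red channel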
# Conditions: BODIPY lipid droplet fluorescence, 18-24 h; for cell number change: measured here: cell count max response, cells fed with added oleic acid
# Outline: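 Drosophila S3 cells got compounds at several concentrations plus oleic acid (400 uM solution). Laser-scanning cytometry with 488 nm excitation read lipid droplets at 500-530 nm and cells at 575-640 nm. Percent activity was relative to 20 uM Triacsin C.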
# [1] = measured here: lipid fluorescence (Fed channel) AC50, cells fed with added oleic acid
# [2] = measured here: cell number channel AC50, cells fed with added oleic acid
SMILES,cell number change [%],AC50 [1],AC50 [2]
Nc1nc(SCC(=O)Nc2cccc(S(=O)(=O)N3CCCCCC3)c2)n[nH]1,-6.56,–,–
O=C(CSc1nnc(-c2cccs2)n1Cc1ccco1)c1ccc2c(c1)OCO2,-8.72,"0.651 µM [rising, full curve]",–
Nc1ccc(-c2nc(-c3ccccc3)nc3ccccc23)cc1,-33.9,–,"29.1 µM [falling, single point]"
COc1ccccc1CNc1nc(C)c(C(C)=O)s1,23.5,–,–
CCOc1ccccc1C1NC(=O)NC(C)=C1C(=O)OC1CCCC1C (stereo unspecified),–,–,"6.51 µM [rising, single point]"
N/C(=N\OC(=O)COc1ccc(Cl)cc1)c1cccnc1,19.2,–,–
COc1ccc(NC(=O)C2=CCN(S(=O)(=O)c3ccccc3)CC2)cc1OC,7.57,"3.66 µM [rising, full curve, poor fit]",–
CCC(=O)N(CCCN(C)C)c1nc(-c2cc(OC)ccc2OC)cs1,-27.9,"6.51 µM [falling, single point]",–
COc1ccc2[nH]c3c(NCCCN4CCCC4=O)ncnc3c2c1,13.9,"16.4 µM [falling, partial curve]",–
Cc1ccccc1N(CC(=O)NCC1CCCO1)C(=O)CNS(=O)(=O)c1ccc(F)cc1 (stereo unspecified),12.9,"6.51 µM [falling, partial curve]",–
CCN(CC(=O)Nc1c(F)cccc1F)C(=O)c1cccnc1Sc1ccccc1,-26.7,"32.6 µM [falling, partial curve, poor fit]",–
COC(=O)c1[nH]c2ccccc2c1NC(=O)C(C)N1CCN(C(=O)c2ccco2)CC1 (stereo unspecified),-5.45,"0.651 µM [falling, single point]",–
Cc1ccc(C(=O)OCC(=O)N(C)C2CCS(=O)(=O)C2)cc1S(=O)(=O)N1CCOCC1 (stereo unspecified),0.24,"3.66 µM [falling, single point]",–
O=C(O)COc1ccc(/C=N/Nc2nc(Nc3ccccc3)nc(N3CCCCC3)n2)cc1,–,–,"0.00411 µM [rising, partial curve, poor fit]"
Fc1ccc(Cn2nnc(-c3ccc(CN4CCOCC4)cc3)n2)cc1,-4.3,"0.517 µM [falling, single point]",–
O=S(=O)(c1ccc(C2=CSC3=NCCN23)cc1)N1CCOCC1,-27.1,"5.8 µM [falling, partial curve]",–
O=C(CSCc1c(Cl)cccc1Cl)NN=C1CCCC1,33.3,–,"32.6 µM [rising, single point]"
CN(C)C(=O)c1cc(Br)ccc1Cl,–,"29.1 µM [falling, single point]",–
CS(=O)(=O)NCCCNc1c(Cl)cccc1[N+](=O)[O-],-21.7,"0.00517 µM [falling, full curve, poor fit]",–
O=C(Nc1nncs1)c1ccc(N2C(=O)C3C4C=CC(C4)C3C2=O)cc1 (stereo unspecified),-30.8,"0.651 µM [falling, full curve, poor fit]","0.13 µM [falling, full curve, poor fit]"
CN(C)c1ccc(/C=N/NC(N)=S)cc1[N+](=O)[O-],29.6,–,–

SMILES,cell number change [%],AC50 [1],AC50 [2]
COc1ccc(-n2c(C)nc3sc4c(c3c2=O)CCCC4)cc1,1.78,–,–
CN1CCN(c2nc(C#N)cc(-c3ccccc3)n2)CC1,8.32,–,"0.0651 µM [rising, partial curve, poor fit]"
N=c1c(C(=O)NC2CCCCC2)cc2c(=O)n3ccccc3nc2n1Cc1ccco1,29.5,–,–
O=S(=O)(NCc1ccco1)c1ccc(Cl)nc1,-8.22,"9.2 µM [rising, partial curve, poor fit]",–
O=C(CCS(=O)(=O)c1cc2c(cc1Cl)NC(=O)CO2)NCCc1ccccc1,-25.7,"29.1 µM [rising, single point]",–
COc1ccc2c(c1)Cc1sc(NC(=O)c3cccnc3)nc1-2,–,"2.31 µM [rising, partial curve]",–
Cc1ccc(NC(=O)CN(C)S(=O)(=O)c2ccc(Cl)s2)c(O)c1,5.57,"0.731 µM [falling, single point]","0.731 µM [falling, single point]"
CCOC(=O)NC(=O)COC(=O)c1ccc(O)cc1,-78.3,"29.1 µM [falling, partial curve]","29.1 µM [falling, single point]"
CC(=O)Nc1ccc(NC(=O)C2CCN(C(=O)c3ccc([N+](=O)[O-])cc3)CC2)cc1,–,"3.26 µM [falling, partial curve]",–
O=C1CC(c2ccccc2)Oc2cc(O)cc(O)c21 (stereo unspecified),-21.7,"1.84 µM [falling, full curve]",–
CCOC(=O)c1cnc(-c2ccccc2)nc1C(F)(F)F,-1.13,"0.116 µM [falling, full curve, poor fit]",–
CC(=O)N1CCN(C(=O)c2ccc(-c3ccccc3Cl)o2)CC1,6.25,"0.00461 µM [rising, full curve, poor fit]",–
N=C1/C(=C\c2ccc(OC(=O)c3ccccc3)cc2)C(=O)N=C2SC(N3CCOCC3)=NN12,1.73,–,–
Cc1ccc(S(=O)(=O)N2CCN(C(=O)c3c(-c4ccccc4)noc3C)CC2)cc1,–,"0.116 µM [rising, single point]",–
N#Cc1c(NC(=O)c2cc(-n3cnnc3)ccc2Cl)sc2c1CCCC2,74.7,–,"7.31 µM [rising, partial curve]"
Nc1nnc(CC(=O)N2CCCCC2)s1,-6.49,"0.651 µM [falling, full curve, poor fit]",–
Cc1nn(CCCC(=O)Nc2ccccn2)c(C)c1[N+](=O)[O-],-9.01,–,"0.461 µM [rising, single point]"
Cc1cc(C)cc(NS(=O)(=O)c2ccc3[nH]c(=O)[nH]c3c2)c1,-73.9,–,"20.6 µM [falling, single point]"
O=C(O)CSC1=NC(=Nc2cccc(Cl)c2)C2(CCCCC2)N1c1ccccc1,-10.4,"0.058 µM [falling, full curve, poor fit]",–
Cc1cc(C(=O)NNC(=S)Nc2ccccc2C)cs1,38.4,"5.17 µM [rising, partial curve]","5.8 µM [rising, full curve]"
CCn1nnnc1SCC(=O)N(C)C1CCS(=O)(=O)C1 (stereo unspecified),19.4,"2.31 µM [rising, full curve, poor fit]",–

# Among those listed so far, 2 contain a COOH group:
SMILES,cell number change [%],AC50 [1],AC50 [2]
O=C(O)COc1ccc(/C=N/Nc2nc(Nc3ccccc3)nc(N3CCCCC3)n2)cc1,–,–,"0.00411 µM [rising, partial curve, poor fit]"
O=C(O)CSC1=NC(=Nc2cccc(Cl)c2)C2(CCCCC2)N1c1ccccc1,-10.4,"0.058 µM [falling, full curve, poor fit]",–

# Continuation:

SMILES,cell number change [%],AC50 [1],AC50 [2]
CC(C)=CCN1CCN(Cc2cccc3c2OCO3)CC1CCO (stereo unspecified),5.24,"0.92 µM [falling, full curve, poor fit]",–
O=C(Nc1ccc(Br)cc1)c1csc(-c2ccncc2)n1,-24,–,"0.164 µM [falling, full curve, poor fit]"
CC1CN(C(=O)CS(=O)(=O)Cc2ccccc2)CC(C)O1 (stereo unspecified),-2.56,–,–
O=C(Nc1nc2n(n1)C(c1ccccc1)C=C(c1ccccc1)N2)c1ccco1 (stereo unspecified),-15.1,"6.51 µM [rising, partial curve, poor fit]",–
COc1ccccc1CNC(=O)CCc1cn(C)c2ccccc12,43.7,–,–
CC(C)CCN(C(=O)c1ccc(N2CCCC2=O)cc1)c1c(N)n(Cc2ccccc2)c(=O)[nH]c1=O,1.54,"4.11 µM [falling, partial curve, poor fit]","0.184 µM [falling, full curve, poor fit]"
Cc1cccc(N2CCN(C(=O)c3nn(C)c4c3CS(=O)(=O)c3ccccc3-4)CC2)c1C,-9.7,"29.1 µM [rising, single point]",–
Cc1ccc(NC(=O)CN(C)C(=O)Cn2ccsc2=N)cc1,15.7,"29.1 µM [rising, single point]",–
O=C(COC(=O)c1ccc(Br)cc1)Nc1cccnc1Cl,25.6,"0.58 µM [rising, full curve]","0.82 µM [rising, full curve, poor fit]"
CCN(CC)S(=O)(=O)c1ccc(NN)nc1,-3.52,"20.6 µM [rising, single point]",–
COc1ccc(-n2cc(-c3ccccc3)c3c(N4CCN(CCO)CC4)ncnc32)cc1,–,"6.51 µM [falling, single point]",–
CCc1ccc(C2(O)CC(C(F)(F)F)=NN2C(=O)Cc2ccc([N+](=O)[O-])cc2)cc1 (stereo unspecified),-45.7,"29.1 µM [falling, single point]","29.1 µM [falling, single point]"
COc1ccccc1NNC(=O)C(O)(c1ccccc1)c1ccccc1,9.93,"2.59 µM [rising, partial curve]",–
O=C(NC(=S)Nc1cccc(O)c1)c1ccco1,1.19,–,"2.91 µM [falling, partial curve]"
COC(=O)c1ccsc1NC(=O)CCS(=O)(=O)c1ccc(Cl)cc1,30.6,"2.06 µM [rising, full curve]","1.84 µM [rising, full curve]"
CCc1ccc(NC(=O)C2CCCN(S(C)(=O)=O)C2)cc1 (stereo unspecified),-32.1,–,"29.1 µM [falling, single point]"
Cc1onc(-c2ccccc2)c1C(=O)NCc1cccs1,56.3,–,"29.1 µM [rising, single point]"
CC(=O)c1ccc(S(=O)(=O)NC2CC2)cc1,7.66,"29.1 µM [rising, single point]",–
CCCN(c1nc(C)cc(OC)n1)S(=O)(=O)c1ccccc1,19,–,"0.231 µM [falling, full curve, poor fit]"
COCCCNC(=O)CCCOc1ccccc1,98.6,–,"25.9 µM [rising, partial curve]"
